This experiment has as its target GLI1 in GBM cells (co-IP with USP28 constructs; GLI1-IP mass spectrometry) (UniProt P08151). The experiment in a line: co-IP; GBM cells expressing full-length or truncated USP28 constructs; RIPA lysis buffer with protease inhibitor cocktail; Pierce Co-Immunoprecipitation Kit.

Sequences of proteins named here, by UniProt entry; tags and fusion partners are left off. A change or cut given only in a name is not applied to a line headed by its entry.
UniProt P08151: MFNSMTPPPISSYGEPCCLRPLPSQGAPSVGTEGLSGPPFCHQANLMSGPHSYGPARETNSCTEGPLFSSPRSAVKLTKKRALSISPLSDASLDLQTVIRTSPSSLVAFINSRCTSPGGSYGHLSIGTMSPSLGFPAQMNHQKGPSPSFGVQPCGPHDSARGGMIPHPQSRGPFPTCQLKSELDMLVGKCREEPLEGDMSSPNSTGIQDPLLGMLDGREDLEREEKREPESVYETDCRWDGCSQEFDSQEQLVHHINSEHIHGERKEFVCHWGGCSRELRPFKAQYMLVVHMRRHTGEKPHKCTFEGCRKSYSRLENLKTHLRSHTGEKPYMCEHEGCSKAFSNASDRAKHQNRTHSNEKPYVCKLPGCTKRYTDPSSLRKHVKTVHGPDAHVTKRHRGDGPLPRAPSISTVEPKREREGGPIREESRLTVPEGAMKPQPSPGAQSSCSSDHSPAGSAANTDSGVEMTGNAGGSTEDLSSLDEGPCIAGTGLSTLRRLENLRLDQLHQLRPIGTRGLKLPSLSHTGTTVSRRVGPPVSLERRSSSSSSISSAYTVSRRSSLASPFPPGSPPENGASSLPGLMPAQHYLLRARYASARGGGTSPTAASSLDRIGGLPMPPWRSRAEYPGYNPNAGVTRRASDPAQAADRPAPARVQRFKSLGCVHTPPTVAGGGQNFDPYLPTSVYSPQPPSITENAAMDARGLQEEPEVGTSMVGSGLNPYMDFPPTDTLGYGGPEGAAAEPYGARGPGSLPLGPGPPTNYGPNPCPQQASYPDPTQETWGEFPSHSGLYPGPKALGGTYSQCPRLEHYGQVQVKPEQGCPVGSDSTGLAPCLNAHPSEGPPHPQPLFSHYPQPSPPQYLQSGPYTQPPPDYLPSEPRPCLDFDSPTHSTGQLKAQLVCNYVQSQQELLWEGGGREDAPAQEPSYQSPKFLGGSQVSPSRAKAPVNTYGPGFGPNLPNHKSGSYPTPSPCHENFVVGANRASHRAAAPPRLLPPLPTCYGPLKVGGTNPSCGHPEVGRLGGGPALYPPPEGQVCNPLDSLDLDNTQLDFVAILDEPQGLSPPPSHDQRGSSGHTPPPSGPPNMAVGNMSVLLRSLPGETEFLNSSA
UniProt Q96RU2: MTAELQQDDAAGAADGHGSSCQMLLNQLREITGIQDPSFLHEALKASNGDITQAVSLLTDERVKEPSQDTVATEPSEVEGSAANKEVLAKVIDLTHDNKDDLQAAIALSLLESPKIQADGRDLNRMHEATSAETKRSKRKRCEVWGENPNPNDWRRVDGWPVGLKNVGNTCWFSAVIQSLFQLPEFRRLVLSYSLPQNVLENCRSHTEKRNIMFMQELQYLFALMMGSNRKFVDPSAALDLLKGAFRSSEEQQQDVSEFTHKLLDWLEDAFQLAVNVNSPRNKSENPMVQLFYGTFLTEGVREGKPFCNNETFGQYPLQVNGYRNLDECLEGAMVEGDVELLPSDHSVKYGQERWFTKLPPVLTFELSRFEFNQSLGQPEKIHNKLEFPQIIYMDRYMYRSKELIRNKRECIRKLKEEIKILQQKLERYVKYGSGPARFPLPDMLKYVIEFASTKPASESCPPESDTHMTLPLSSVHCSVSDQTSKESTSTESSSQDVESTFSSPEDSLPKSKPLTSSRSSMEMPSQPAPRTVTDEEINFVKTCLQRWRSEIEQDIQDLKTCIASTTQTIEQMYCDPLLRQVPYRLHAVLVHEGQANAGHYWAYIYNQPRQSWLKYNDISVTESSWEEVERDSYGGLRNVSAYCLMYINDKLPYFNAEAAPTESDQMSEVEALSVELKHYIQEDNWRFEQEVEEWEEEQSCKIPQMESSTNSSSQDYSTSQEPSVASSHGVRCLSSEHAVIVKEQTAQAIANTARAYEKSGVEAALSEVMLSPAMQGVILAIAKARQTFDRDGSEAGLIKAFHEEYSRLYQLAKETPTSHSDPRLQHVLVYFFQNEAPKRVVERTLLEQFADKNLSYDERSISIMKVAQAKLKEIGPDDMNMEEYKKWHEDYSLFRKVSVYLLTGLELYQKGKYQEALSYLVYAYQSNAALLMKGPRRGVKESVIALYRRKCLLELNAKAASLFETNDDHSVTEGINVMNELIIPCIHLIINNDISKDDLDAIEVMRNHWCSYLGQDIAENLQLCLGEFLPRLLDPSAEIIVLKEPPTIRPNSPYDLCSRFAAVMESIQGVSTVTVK

These are yes or no findings as the source states them, for the method shown. In cells and extracts the contact can be indirect. Binding can be weak; no strength is given.

For “USP-domain truncated version of USP28 (from UniProt Q96RU2) (domain or fragment)”, the binding result is “binds”.

Values taken from publication PMC12486407.
